In all, about 400,000 compounds went through this assay and about 13,000 (3.2%) were called active. The shares of active, inactive and inconclusive entries below differ from those in the screen. The call rests on the fitted dose curve; in most records, active means well fitted cell-killing curve with a large enough effect; inconclusive means small, poorly fitted or top-dose-only effect, or effect the other way; inactive means flat fitted curve, though single readings scatter. A potency beside an inconclusive call is a rough fit, not a confirmed value.
Test: qHTS assay for MDR1-selective chemotherapeutics: Primary screen using the drug-selected MDR subline cells KB-V1; further: nearly all actives have a fitted effect of over 60% in size
Settings: KB-V1 MDR cells viability, CellTiter-Glo, 72 h; activity change, negative = cytotoxicity: at 46.1 µM (top of the series)
Outline: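 KB-V1 cells (P-gp-expressing MDR subline of KB-3-1) in phenol-red-free DMEM with 10% FBS were exposed to library compounds over a concentration series for 72 h at 37 degrees C. Viability read by CellTiter-Glo luminescence; concentration-effect curves fitted after normalization.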
On the % scale 0 is the no-effect control and ±100 the full control effect; potency means the concentration at half of the fitted maximal effect.

Row | Compound | Potency | activity change, negative = cytotoxicity
1 | CCOc1ccccc1CNS(=O)(=O)c1ccc2c(c1)C(C)(C)C(=O)N2C | inconclusive: 10.3 µM [cytotoxic, partial curve, poor fit] | 
2 | Nn1c(SCc2cccc3ccccc23)nnc1-c1ccco1 | inconclusive: 20.6 µM [cytotoxic, single point] | 
3 | O=S(=O)(NCc1ccccc1Cl)c1ccc(-c2cnc(C3CC3)o2)cc1 | inconclusive: 20.6 µM [cytotoxic, single point] | 
4 | COc1ccc(N2C(=O)CSC23C(=O)N(Cc2ccccc2F)c2ccccc23)cc1Cl (stereo not given) | active: 18.4 µM | 
5 | Cc1nc2ccc(NC(=O)c3cccs3)cc2c(=O)n1Cc1ccc(Cl)cc1 | inconclusive: 16.4 µM [cytotoxic, partial curve, poor fit] | 
6 | Cc1c(C#N)c(N)nc(Cl)c1C#N |  | inactive: -3.03%
7 | CN(C)c1ccc(/C=C/c2ccnc3ccccc23)cc1C=O |  | inactive: 0%
8 | O=C(O)c1ccc(-n2nc(C(F)(F)F)c3c2CCCC3)cc1 | inactive | 
9 | Cc1nc(NCCN2CCOCC2)c2nnn(Cc3c(F)cccc3Cl)c2n1 | active: 18.4 µM | 
10 | CC(=O)Nc1ccc(NC(=O)c2cccc(-c3cc4ccccc4oc3=O)c2)cc1 |  | inactive: -6.02%
11 | CC(=O)NCC12CC3CC(C1)CC(C(=O)O)(C3)C2 | inconclusive: 15.8 µM [rising, single point] | 
12 | Fc1ccc(-c2nnc3ccccn23)cc1 |  | inactive: 7.86%
13 | CCOC(=O)N1CCN(c2nc(-c3cccs3)nc3ccccc23)CC1 | inconclusive: 20.6 µM [cytotoxic, single point] | 
14 | Cc1cccc(N=C2NC(=O)/C(=C/c3cccn3C)S2)c1 | active: 5.8 µM | 
15 | O=C(CCNS(=O)(=O)c1ccccc1)NCCSc1ccc(Br)cc1 | inconclusive: 29.1 µM [rising, single point] | 
16 | N#Cc1ccc(CSc2ccc(S(=O)(=O)N3CCCCCC3)cn2)cc1 | inconclusive: 25.9 µM [cytotoxic, single point] | 
17 | Cc1cc(=S)cc(C)n1CCCO | inconclusive: 1.12 µM [rising, full curve] | 
18 | NC(=O)CN1CCN(c2ccccc2F)CC1 |  | inactive: 28.7%
19 | O=CNc1c(Cl)cc2c(c1Cl)Cc1cc([N+](=O)[O-])ccc1-2 | inconclusive: 23.1 µM [cytotoxic, partial curve, poor fit] | 
20 | COc1cccc(-c2csc(NC(=O)Nc3ccccc3)n2)c1 | inconclusive: 20.6 µM [cytotoxic, single point] | 
21 | CN(CC(=O)Nc1cccc(F)c1)C(=O)c1cc(-c2ccccc2)nc2ccccc12 | inconclusive: 29.1 µM [cytotoxic, single point] | 
22 | Cc1ccc2[nH]c(CN3CCC(CO)(CC4CCCCO4)CC3)c(C)c2c1 (stereo not given) | inconclusive: 18.4 µM [cytotoxic, single point] | 
23 | COC(=O)c1ccc(NS(=O)(=O)c2cc(-c3cc(C)no3)ccc2OC)cc1 | inconclusive: 29.1 µM [cytotoxic, single point] | 
24 | COc1ccc(Br)cc1CN1CCCC(C(=O)N2CCCCC2)C1 (stereo not given) |  | inactive: -16.5%

Row | Compound | Potency | activity change, negative = cytotoxicity
25 | CCOc1ccc(NC(=O)NC2CCS(=O)(=O)C2)cc1 (stereo not given) | inconclusive: 18.4 µM [rising, partial curve, poor fit] | 
26 | Cc1cccc(N2CCN(CCNC(=O)c3cc4c(s3)CS(=O)(=O)C4)CC2)c1C | inconclusive: 18.4 µM [cytotoxic, partial curve] | 
27 | CCCOc1ccc(Cc2c(Cl)nc(SC)nc2OC)cc1 | inconclusive: 29.1 µM [cytotoxic, partial curve, poor fit] | 
28 | COCCn1c(=O)[nH]c(=O)c2c1nc(-c1ccc(-c3ccc(Cl)cc3[N+](=O)[O-])o1)n2Cc1ccccc1 | active: 23.1 µM | 
29 | COc1cc(/C=N/n2c(-c3ccccc3)n[nH]c2=S)cc(OC)c1OC |  | inactive: -24.4%
30 | Nc1nonc1C(=O)NCCNC(=O)c1ccccc1F | inconclusive: 23.1 µM [rising, partial curve, poor fit] | 
31 | COc1ccc(Nc2nc3c(S(=O)(=O)c4ccccc4)nnn3c3ccc(Cl)cc23)c(OC)c1 | inconclusive: 29.1 µM [rising, single point] | 
32 | CCSC(=O)CCCCCCCCCCCO | inconclusive: 29.1 µM [rising, single point] | 
33 | CC(c1ccc(F)cc1)n1cc(C(=O)NCc2ccccn2)nn1 (stereo not given) | inconclusive: 29.1 µM [rising, single point] | 
34 | CCN(CC)S(=O)(=O)c1ccc(C)c(NC(=O)CSc2nc3ccc(C)cc3[nH]2)c1 | active: 14.6 µM | 
35 | CC(C)C(C(=O)NCC1CCCO1)N(C(=O)CNS(=O)(=O)c1ccc(F)cc1)C1CCCCC1 (stereo not given) | inconclusive: 7.31 µM [cytotoxic, partial curve] | 
36 | Cc1cc(C(=O)COc2cccnc2[N+](=O)[O-])c(C)n1-c1ccccc1 |  | inactive: 17.9%
37 | COCCNC(=O)C1(C)CCCN(C(=O)c2ccc(F)cc2Cl)C1 (stereo not given) |  | inactive: -0.83%
38 | COc1ccc(NC(=O)c2c(C(F)(F)F)nn(C)c2SCc2ccccc2)cc1 | inconclusive: 25.9 µM [cytotoxic, single point] | 
39 | Cc1ccc(S(=O)(=O)c2nc(-c3cccs3)oc2N2CCC(C(N)=O)CC2)cc1 |  | inactive: -0.551%
40 | COc1ccccc1OCC(=O)Nc1nnc(-c2ccco2)s1 | inconclusive: 23.1 µM [cytotoxic, partial curve] | 
41 | Cc1ccnc(SCCn2c(N3CCC(C)CC3)nc3c2c(=O)n(C)c(=O)n3C)n1 |  | inactive: 0%
42 | COc1ccc(-c2nc(C)c(CCNC(=O)c3ccc(F)c(F)c3)s2)cc1 | inconclusive: 7.31 µM [cytotoxic, partial curve] | 
43 | COC(=O)C1=C(C)NC(=O)NC1c1ccc(OC)c(OC)c1 (stereo not given) | inconclusive: 32.6 µM [rising, single point] | 
44 | CN(C)c1ccc(N=Nc2nc3ccccc3n2C)cc1 | inconclusive: 29.1 µM [cytotoxic, single point] | 
45 | O=C(Nc1ccccc1)c1ccccc1OCc1ccc(F)cc1 | inconclusive: 0.58 µM [rising, full curve, poor fit] | 
46 | CCCC(=O)Nc1ccc2nc(SCC(=O)N3CCCC3)sc2c1 | inconclusive: 9.2 µM [cytotoxic, partial curve] | 
47 | CC(C(=O)N/N=C/c1ccc(N(C)C)c(Br)c1)N(c1ccccc1)S(C)(=O)=O (stereo not given) | inconclusive: 18.4 µM [cytotoxic, partial curve] | 
48 | O=C(c1ccc(F)cc1)C1CCN(C(=S)Nc2ccccc2)CC1 | inconclusive: 29.1 µM [cytotoxic, single point] | 

Row | Compound | Potency | activity change, negative = cytotoxicity
49 | CC(C)C(=O)Nc1cccc(C(=O)N2CCCCC2C)c1 (stereo not given) |  | inactive: -3.42%
50 | NC(=O)C1CCN(CC(O)COc2ccc(-c3ccccc3)cc2)CC1 (stereo not given) | inconclusive: 29.1 µM [rising, single point] | 
51 | Cc1ccc(/C=N/NC(=O)c2cccc(S(=O)(=O)N3CCOCC3)c2)o1 | inconclusive: 29.1 µM [rising, partial curve, poor fit] | 
52 | C[N+](C)(C)CCOC(N)=O | inconclusive: 25.9 µM [rising, partial curve, poor fit] | 
53 | Clc1ccc(-c2noc(CN3CCCC3)n2)cc1 | inconclusive: 29.1 µM [rising, single point] | 
54 | CCOc1ccccc1N(C)S(=O)(=O)c1ccc2c(c1)CC(C)N2C(=O)C1CC1 (stereo not given) | inconclusive: 0.259 µM [cytotoxic, full curve] | 
55 | CN(C(=O)CSc1nc2ccc(NC(=O)c3ccccc3F)cc2s1)c1ccccc1 |  | inactive: -31%
56 | Cc1cc(NC(=O)COc2cccc(Oc3ccccc3)c2)no1 | inconclusive: 20.6 µM [cytotoxic, single point] | 
57 | CCN(CC)CCCNC(=O)C1CCN(C(=O)c2oc3cc4sc(N(C)C)nc4cc3c2C)CC1 | inconclusive: 20.6 µM [rising, single point] | 
58 | COc1ccc(NC(=O)c2cnc(C)cn2)cc1-n1cnnn1 |  | inactive: 18%
59 | COC(=O)c1ccc(NC(=O)CSC2=Nc3ccccc3C3CC=NN23)cc1 (stereo not given) | active: 16.4 µM | 
60 | Cc1ccc(CNC(=O)c2cccc(N3CCCS3(=O)=O)c2)cc1 |  | inconclusive: -47.2%
61 | COc1ccc(-c2ccc3ncnc(NCc4nc(C)cs4)c3c2)cc1OC | inconclusive: 1.46 µM [cytotoxic, full curve] | 
62 | Cn1cnc(S(=O)(=O)Nc2ccc(OC(F)F)cc2)c1 | inconclusive: 18.4 µM [rising, single point] | 
63 | Cc1ccc(Cl)cc1N1CCN(Cc2nnnn2Cc2ccco2)CC1 | inconclusive: 14.6 µM [cytotoxic, single point] | 
64 | O=C(COC(=O)C1CC1)Nc1ncc(C(F)(F)F)cc1Cl | inconclusive: 23.1 µM [rising, single point] | 
65 | C/C(=C\C(=O)c1sccc1Cl)N(C)C | inconclusive: 29.1 µM [cytotoxic, single point] | 
66 | CCOc1ccc(N2CC(C)Cn3c2nc2c3c(=O)n(CC(=O)O)c(=O)n2C)cc1 (stereo not given) | inconclusive: 9.2 µM [rising, partial curve, poor fit] | 
67 | CC(=O)c1ccc(NC(=O)/C(=C\c2ccco2)NC(=O)c2ccco2)cc1 | inconclusive: 3.66 µM [rising, full curve, poor fit] | 
68 | Cc1ccc(C(=O)Nc2cccc(NC(=O)c3ccc(C)cc3)n2)cc1 | inconclusive: 6.51 µM [cytotoxic, partial curve] | 
69 | C[C@@H]1CN([C@H](C)CO)C(=O)c2c(c3ccccc3n2C)-c2ccccc2CO[C@H]1CN(C)C(=O)c1cc(Cl)cc(Cl)c1 |  | inactive: -25.4%
70 | Cc1ccc(CNC(=O)Cn2c(=O)n(Cc3ccccc3)c(=O)c3c2c2cc(C)ccc2n3C)cc1 | inconclusive: 29.1 µM [rising, single point] | 

Another view of 2 compounds above.

| Row | Compound | Potency | activity change, negative = cytotoxicity |
| --- | --- | --- | --- |
| 69 | C[C@@H]1CN([C@H](C)CO)C(=O)c2c(c3ccccc3n2C)-c2ccccc2CO[C@H]1CN(C)C(=O)c1cc(Cl)cc(Cl)c1 |  | inactive: -25.4% |
| 70 | Cc1ccc(CNC(=O)Cn2c(=O)n(Cc3ccccc3)c(=O)c3c2c2cc(C)ccc2n3C)cc1 | inconclusive: 29.1 µM [rising, single point] |  |

Source: PubChem BioAssay AID1347076 (National Center for Advancing Translational Sciences (NCATS), 2019)
